# Measurements reported in the supplement of paper PMC9135407.
# Where “and” joins values, the source holds several entries; their conditions need not be identical. Equal values may be shown once. Where a name gives a salt, the structure may show the parent alone. ± gives the standard deviation of the averaged measurements. This is one part of the list. Baselines shift from plate to plate; read single values as rough.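 Primary human stellate myofibroblasts activated in culture; inactivation shown by regained lipid droplets. Readout: fraction of Hoechst-counted cells exceeding a per-plate Bodipy threshold, duplicate wells, each plate with DMSO negative and nortriptyline positive controls. Hits: control-normalized score beyond the plate's top-tenth-percentile nortriptyline wells, or among its three best wells. Final well concentrations unstated.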
# Test system: primary human hepatic stellate cells (donor 1)
# Assay: percent Bodipy-positive cells; higher = more lipid droplet accumulation
# Conditions: 48 h
# [1] = library stock concentration: 10 mM
# [2] = library stock concentration: 1 mM
# [3] = library stock concentration: 3.33 mM
# [4] = library stock concentration: 80 uM
# [5] = library stock concentration: 400 uM
# [6] = library stock concentration: 5.3 mM
smiles,measurement,setting,value
CC(=O)[C@@]1(O)CC[C@H]2[C@@H]3CCC4=CC(=O)CC[C@]4(C)[C@H]3CC[C@@]21C,percent Bodipy-positive cells,[1],35.5 ± 1.6%
CC(=O)[C@@]1(O)CC[C@H]2[C@@H]3CCC4=CC(=O)CC[C@]4(C)[C@H]3CC[C@@]21C [17alpha-hydroxyprogesterone],percent Bodipy-positive cells,[1],38.6 ± 16%
COc1ccc(S(=O)(=O)N(CCO)c2ccccc2CN(C)CC=Cc2ccc(Cl)cc2)cc1.O=P(=O)OO.[H] [KN-93 Phosphate],percent Bodipy-positive cells,[1],97.77 ± 0.68%
Cl.N[C@@H](CCC(=O)O)C(=O)O [L-Glutamic acid hydrochloride],percent Bodipy-positive cells,[1],36.7 ± 14%
O=C1C[C@@H]2[C@@H](CC[C@@H](O)CCc3ccccc3)[C@H](O)C[C@@H]2O1 [Latanoprost Lactone Diol],percent Bodipy-positive cells,[2],8.903 ± 0.042%
O=C1NCC2(CCN(CCc3ccccc3)CC2)O1 [Fenspiride HCl],percent Bodipy-positive cells,[3],7.93 ± 2.1%
same,percent Bodipy-positive cells,[1],16.9 ± 4.8%
O=C1NCC2(CCN(CCc3ccccc3)CC2)O1 [Fenspiride hydrochloride],percent Bodipy-positive cells,,46 ± 17%
same,percent Bodipy-positive cells,library stock concentration: 6.7 mM,16.4 ± 0.6%
same,percent Bodipy-positive cells,[1],30% and 53.9%
COc1ccc(/C=C/C(=O)Nc2c(O)cccc2C(=O)O)cc1OC,percent Bodipy-positive cells,[2],18 ± 11%
Clc1ccc2c(c1)CCc1cccnc1C2=C1CCNCC1 [Desloratadine],percent Bodipy-positive cells,[3],51.4 ± 4.5%
same,percent Bodipy-positive cells,[1],95.9 ± 3%
Clc1ccc2c(c1)CCc1cccnc1C2=C1CCNCC1 [Desloratidine],percent Bodipy-positive cells,library stock concentration: 6.4 mM,60.9 ± 2.2%
"COC(=O)c1ccc2c(c1)NC(=O)/C2=C(\Nc1ccc(N(C)C(=O)CN2CCN(C)CC2)cc1)c1ccccc1 [Intedanib (BIBF 1120, Vargatef) (10 mM)]",percent Bodipy-positive cells,[1],88.66 ± 0.034%
CSC(=N)N [S-Methylisothiourea hemisulfate],percent Bodipy-positive cells,[1],26 ± 11%
CSC(=N)N [S-methyl Isothiourea (hemisulfate)],percent Bodipy-positive cells,[2],7.55 ± 2.2%
CN(C)CCOC(c1ccccc1)c1ccccc1.Cn1c(=O)c2[nH]c(Cl)nc2n(C)c1=O [Dimenhydrinate],percent Bodipy-positive cells,,45 ± 8.6%
same,percent Bodipy-positive cells,[1],15.8 ± 4.3%
CN(CCCN1c2ccccc2CCc2ccccc21)CC(=O)c1ccc(Cl)cc1 [Lofepramine],percent Bodipy-positive cells,[1],30.8 ± 5.1%
CN(CCCN1c2ccccc2CCc2ccccc21)CC(=O)c1ccc(Cl)cc1,percent Bodipy-positive cells,[1],37.5 ± 1.2%
CCS(=O)(=O)N1CC(CC#N)(n2cc(-c3ncnc4[nH]ccc34)cn2)C1 [Baricitinib],percent Bodipy-positive cells,[4],13 ± 0.94%
same,percent Bodipy-positive cells,[5],11.5 ± 0.55%
same,percent Bodipy-positive cells,library stock concentration: 2 mM,7.3 ± 4.3%
same,percent Bodipy-positive cells,[1],25.7 ± 9.2%
CCS(=O)(=O)N1CC(CC#N)(n2cc(-c3ncnc4[nH]ccc34)cn2)C1,percent Bodipy-positive cells,[3],6.19 ± 0.8%
same,percent Bodipy-positive cells,[1],12.7 ± 4.2%
CS(=O)(=O)O.Cc1ccc(NC(=O)c2ccc(CN3CCN(C)CC3)cc2)cc1Nc1nccc(-c2cccnc2)n1 [Imatinib],percent Bodipy-positive cells,[1],98.067 ± 0.013%
CCCCCC=CCC=CC=CC=CC(SCC(NC(C)=O)C(=O)O)C(O)CCCC(=O)O (stereo not drawn) [N-Acetyl-leukotriene E4],percent Bodipy-positive cells,library stock concentration: 100 uM,18.1 ± 3.6%
O=C(O)CCC/C=C\C[C@@H]1[C@@H](CC[C@@H](O)CCc2cccc(C(F)(F)F)c2)[C@H](O)C[C@@H]1O,percent Bodipy-positive cells,[2],14.5 ± 0.8%
CCCOc1ccc2[nH]c(NC(=O)OC)nc2c1 [Oxibendazole],percent Bodipy-positive cells,library stock concentration: 8 mM,17.7% and 5.52%
same,percent Bodipy-positive cells,[1],45.9 ± 6.3%
Cc1cc2nc3c(=O)[nH]c(=O)nc-3n(C[C@H](O)[C@H](O)[C@H](O)CO)c2cc1C [Riboflavine],percent Bodipy-positive cells,,19.7 ± 0.51%
Cc1cc2nc3c(=O)[nH]c(=O)nc-3n(C[C@H](O)[C@H](O)[C@H](O)CO)c2cc1C [Riboflavin],percent Bodipy-positive cells,[6],18.1 ± 5.2%
same,percent Bodipy-positive cells,[1],35.59 ± 0.12%
CC(C)(CO)Cc1cc(C(C)(C)C)c(O)c(C(C)(C)C)c1,percent Bodipy-positive cells,[1],86.6 ± 2.9%
Cc1[nH]cnc1CN1CCc2c(c3ccccc3n2C)C1=O,percent Bodipy-positive cells,[1],13.6 ± 7.8%
O=C(Nc1ccc2[nH]nc(-c3ccncc3)c2c1)[C@@H]1CCN(CC(=O)N2CCN(c3ccc(-c4ncccn4)cc3)CC2)C1,percent Bodipy-positive cells,[1],77.9 ± 5.2%
O=C(O)CCc1ccc(NCc2cccc(Oc3ccccc3)c2)cc1,percent Bodipy-positive cells,[2],15.7 ± 11%
same,percent Bodipy-positive cells,[3],28.7 ± 1.4%
CC(C)c1ccccc1Cc1cc(C(=O)Nc2ccc(S(=O)(=O)c3ccccc3C(C)(C)C)cc2)c(O)c(O)c1O,percent Bodipy-positive cells,[3],8.23 ± 0.34%
same,percent Bodipy-positive cells,[1],16.7 ± 8.7%
"N=C(N)SCCc1ccc(CCSC(=N)N)cc1 [1,4-PBIT (dihydrobromide)]",percent Bodipy-positive cells,[2],15.2 ± 3.3%
COc1ccc(CN(CCN(C)C)c2ncccn2)cc1 [Thonzylamine hydrochloride],percent Bodipy-positive cells,library stock concentration: 6.2 mM,35.4 ± 13%
same,percent Bodipy-positive cells,[1],41.04 ± 0.079%
O=C(Nc1ccccc1)N[C@@H]1C[C@@H](C(=O)O)Nc2cc(Cl)cc(Cl)c21,percent Bodipy-positive cells,[1],8.34 ± 1.6%
Cc1cc2c(OCC(CNC(C)(C)C)OC(=O)c3ccccc3)cccc2[nH]1 (stereo not drawn) [Bopindolol malonate],percent Bodipy-positive cells,[6],9.63 ± 0.77%
Cc1ccc(Sc2ccccc2N2CCNCC2)c(C)c1,percent Bodipy-positive cells,[3],99.28 ± 0.38%
same,percent Bodipy-positive cells,[1],99.35 ± 0.92%
CC[C@@H](C)Nc1cc(C(=O)NC2CC3CCC(C2)N3c2ccc(C(=O)C3CC3)cn2)c(C)cc1C(N)=O (stereo partly drawn),percent Bodipy-positive cells,[1],88 ± 3.9%
CN1CCC(CNc2ccc3ncc(-c4cccc(OC(F)(F)F)c4)n3n2)CC1,percent Bodipy-positive cells,[4],25.7 ± 0.88%
same,percent Bodipy-positive cells,[5],48.7 ± 23%
same,percent Bodipy-positive cells,[1],90.7 ± 2%
CN1CCC(CNc2ccc3ncc(-c4cccc(OC(F)(F)F)c4)n3n2)CC1 [SGI-1776 free base],percent Bodipy-positive cells,[3],86.3 ± 2.3%
same,percent Bodipy-positive cells,[1],92.2 ± 8.3%
COc1ccc(CNc2nc(N(CCO)CCO)nc3c2ncn3C(C)C)cc1 [Cdk2 Inhibitor III],percent Bodipy-positive cells,[3],46.4 ± 7.6%
NC(=O)c1ccc[n+]([C@@H]2O[C@H](COP(=O)([O-])OP(=O)(O)OC[C@H]3O[C@@H](n4cnc5c(N)ncnc54)[C@H](O)[C@@H]3O)[C@@H](O)[C@H]2O)c1 [Nadide],percent Bodipy-positive cells,,9.5 ± 2.2%
same,percent Bodipy-positive cells,library stock concentration: 3 mM,5.22 ± 0.28%

# An excerpt of these results, with tabs:
smiles	measurement	setting	value
CCS(=O)(=O)N1CC(CC#N)(n2cc(-c3ncnc4[nH]ccc34)cn2)C1 [Baricitinib]	percent Bodipy-positive cells	library stock concentration: 2 mM	7.3 ± 4.3%
CC(C)(CO)Cc1cc(C(C)(C)C)c(O)c(C(C)(C)C)c1	percent Bodipy-positive cells	[1]	86.6 ± 2.9%
CN1CCC(CNc2ccc3ncc(-c4cccc(OC(F)(F)F)c4)n3n2)CC1	percent Bodipy-positive cells	[1]	90.7 ± 2%
CN1CCC(CNc2ccc3ncc(-c4cccc(OC(F)(F)F)c4)n3n2)CC1 [SGI-1776 free base]	percent Bodipy-positive cells	[1]	92.2 ± 8.3%
